Test [1] addresses T1, calcium and integrin binding protein-1 (CIB1) (human (endogenous in HMVEC-d)) (UniProt Q99828).
T1 sequence: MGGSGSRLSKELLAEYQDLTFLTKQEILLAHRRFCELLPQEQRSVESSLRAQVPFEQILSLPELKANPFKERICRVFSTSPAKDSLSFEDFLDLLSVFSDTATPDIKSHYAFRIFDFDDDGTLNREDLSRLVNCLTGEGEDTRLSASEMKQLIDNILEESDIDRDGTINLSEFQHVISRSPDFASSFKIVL
Description: affinity purification with mass spectrometry; 200 µg lysate of HMVEC-d cells infected with KSHV for 10 min (or mock), immunoprecipitated overnight at 4°C with mouse anti-CIB1 or rabbit anti-EphA2; 4-20% SDS-PAGE, Coomassie bands analysed by LC-ESI-MS.

Amino acid sequences for entries named in this document (tags omitted). Residues count along the entry.
UniProt P29317, residues 24-976: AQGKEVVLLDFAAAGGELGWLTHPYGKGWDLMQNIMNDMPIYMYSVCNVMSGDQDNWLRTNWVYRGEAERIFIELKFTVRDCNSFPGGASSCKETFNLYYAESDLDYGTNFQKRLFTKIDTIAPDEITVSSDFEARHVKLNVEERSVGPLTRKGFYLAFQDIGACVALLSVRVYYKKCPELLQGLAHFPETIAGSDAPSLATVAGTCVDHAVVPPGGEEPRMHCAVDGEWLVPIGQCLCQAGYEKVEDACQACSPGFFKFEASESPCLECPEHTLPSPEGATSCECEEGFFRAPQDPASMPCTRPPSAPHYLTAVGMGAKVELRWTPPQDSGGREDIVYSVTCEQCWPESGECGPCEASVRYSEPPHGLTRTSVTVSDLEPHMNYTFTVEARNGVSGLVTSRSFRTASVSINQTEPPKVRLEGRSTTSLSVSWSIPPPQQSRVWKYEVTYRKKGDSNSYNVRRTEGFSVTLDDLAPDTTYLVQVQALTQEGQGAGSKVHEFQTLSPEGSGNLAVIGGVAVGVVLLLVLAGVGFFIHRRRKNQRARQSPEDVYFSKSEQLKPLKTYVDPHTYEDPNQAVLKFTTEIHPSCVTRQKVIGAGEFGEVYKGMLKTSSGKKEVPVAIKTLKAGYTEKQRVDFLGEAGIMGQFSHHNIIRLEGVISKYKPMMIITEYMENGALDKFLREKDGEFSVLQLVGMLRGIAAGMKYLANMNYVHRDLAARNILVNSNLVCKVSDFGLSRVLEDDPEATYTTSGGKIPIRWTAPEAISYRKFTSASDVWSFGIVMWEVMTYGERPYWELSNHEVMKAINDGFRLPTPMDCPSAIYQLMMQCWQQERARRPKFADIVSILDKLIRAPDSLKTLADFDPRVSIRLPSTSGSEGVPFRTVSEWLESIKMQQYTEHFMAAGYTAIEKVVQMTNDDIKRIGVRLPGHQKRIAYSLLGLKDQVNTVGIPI
UniProt P11021, residues 19-654: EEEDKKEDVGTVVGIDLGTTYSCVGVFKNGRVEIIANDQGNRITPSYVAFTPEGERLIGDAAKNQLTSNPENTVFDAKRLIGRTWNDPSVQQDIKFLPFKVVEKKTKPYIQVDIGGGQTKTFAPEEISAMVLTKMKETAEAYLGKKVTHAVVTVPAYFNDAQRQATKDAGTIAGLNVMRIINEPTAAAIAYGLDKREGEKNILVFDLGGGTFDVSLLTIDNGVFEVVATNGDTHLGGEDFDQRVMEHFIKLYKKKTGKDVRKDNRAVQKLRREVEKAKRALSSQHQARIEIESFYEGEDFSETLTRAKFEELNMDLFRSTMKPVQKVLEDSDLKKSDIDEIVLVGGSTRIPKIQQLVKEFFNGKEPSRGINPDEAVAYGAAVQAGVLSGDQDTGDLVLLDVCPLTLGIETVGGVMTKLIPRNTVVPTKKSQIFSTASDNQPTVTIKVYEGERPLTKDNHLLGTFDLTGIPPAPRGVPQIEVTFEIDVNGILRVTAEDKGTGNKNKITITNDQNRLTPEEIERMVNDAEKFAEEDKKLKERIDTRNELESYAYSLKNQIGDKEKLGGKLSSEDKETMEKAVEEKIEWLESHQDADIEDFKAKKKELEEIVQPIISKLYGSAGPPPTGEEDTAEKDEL
UniProt P15311: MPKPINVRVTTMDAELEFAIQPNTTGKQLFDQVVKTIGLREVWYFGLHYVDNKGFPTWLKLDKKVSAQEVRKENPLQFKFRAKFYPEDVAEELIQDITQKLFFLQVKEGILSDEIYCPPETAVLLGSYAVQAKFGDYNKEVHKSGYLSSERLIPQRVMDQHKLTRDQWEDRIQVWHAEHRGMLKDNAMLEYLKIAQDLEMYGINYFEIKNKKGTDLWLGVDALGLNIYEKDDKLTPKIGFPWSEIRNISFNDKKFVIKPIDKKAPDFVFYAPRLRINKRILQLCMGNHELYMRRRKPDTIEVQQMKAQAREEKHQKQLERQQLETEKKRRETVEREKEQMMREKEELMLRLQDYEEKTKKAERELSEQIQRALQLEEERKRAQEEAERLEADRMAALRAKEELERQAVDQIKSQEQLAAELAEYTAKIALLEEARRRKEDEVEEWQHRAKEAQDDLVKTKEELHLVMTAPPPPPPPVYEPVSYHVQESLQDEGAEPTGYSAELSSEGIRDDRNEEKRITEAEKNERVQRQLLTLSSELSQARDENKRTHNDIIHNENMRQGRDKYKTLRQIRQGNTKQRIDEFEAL
UniProt P26038: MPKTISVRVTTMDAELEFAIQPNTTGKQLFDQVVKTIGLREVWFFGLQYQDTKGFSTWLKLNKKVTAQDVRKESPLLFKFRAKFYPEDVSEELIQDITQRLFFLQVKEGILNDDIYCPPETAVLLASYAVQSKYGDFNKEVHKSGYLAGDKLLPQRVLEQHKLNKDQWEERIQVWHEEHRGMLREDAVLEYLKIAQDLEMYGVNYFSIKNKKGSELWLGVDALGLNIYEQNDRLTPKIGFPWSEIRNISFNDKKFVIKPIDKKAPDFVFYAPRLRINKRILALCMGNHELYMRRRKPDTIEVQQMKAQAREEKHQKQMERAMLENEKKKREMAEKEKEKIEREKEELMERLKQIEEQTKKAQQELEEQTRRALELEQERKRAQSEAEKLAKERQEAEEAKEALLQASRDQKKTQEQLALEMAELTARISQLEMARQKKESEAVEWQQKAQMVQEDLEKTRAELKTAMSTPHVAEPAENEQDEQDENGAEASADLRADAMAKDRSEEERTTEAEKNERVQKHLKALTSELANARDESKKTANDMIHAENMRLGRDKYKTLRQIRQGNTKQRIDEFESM
UniProt P60660: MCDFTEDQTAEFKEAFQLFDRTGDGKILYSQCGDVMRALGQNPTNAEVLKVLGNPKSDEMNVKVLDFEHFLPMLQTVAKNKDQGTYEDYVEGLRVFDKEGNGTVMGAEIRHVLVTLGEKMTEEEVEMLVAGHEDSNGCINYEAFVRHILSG
UniProt O43707: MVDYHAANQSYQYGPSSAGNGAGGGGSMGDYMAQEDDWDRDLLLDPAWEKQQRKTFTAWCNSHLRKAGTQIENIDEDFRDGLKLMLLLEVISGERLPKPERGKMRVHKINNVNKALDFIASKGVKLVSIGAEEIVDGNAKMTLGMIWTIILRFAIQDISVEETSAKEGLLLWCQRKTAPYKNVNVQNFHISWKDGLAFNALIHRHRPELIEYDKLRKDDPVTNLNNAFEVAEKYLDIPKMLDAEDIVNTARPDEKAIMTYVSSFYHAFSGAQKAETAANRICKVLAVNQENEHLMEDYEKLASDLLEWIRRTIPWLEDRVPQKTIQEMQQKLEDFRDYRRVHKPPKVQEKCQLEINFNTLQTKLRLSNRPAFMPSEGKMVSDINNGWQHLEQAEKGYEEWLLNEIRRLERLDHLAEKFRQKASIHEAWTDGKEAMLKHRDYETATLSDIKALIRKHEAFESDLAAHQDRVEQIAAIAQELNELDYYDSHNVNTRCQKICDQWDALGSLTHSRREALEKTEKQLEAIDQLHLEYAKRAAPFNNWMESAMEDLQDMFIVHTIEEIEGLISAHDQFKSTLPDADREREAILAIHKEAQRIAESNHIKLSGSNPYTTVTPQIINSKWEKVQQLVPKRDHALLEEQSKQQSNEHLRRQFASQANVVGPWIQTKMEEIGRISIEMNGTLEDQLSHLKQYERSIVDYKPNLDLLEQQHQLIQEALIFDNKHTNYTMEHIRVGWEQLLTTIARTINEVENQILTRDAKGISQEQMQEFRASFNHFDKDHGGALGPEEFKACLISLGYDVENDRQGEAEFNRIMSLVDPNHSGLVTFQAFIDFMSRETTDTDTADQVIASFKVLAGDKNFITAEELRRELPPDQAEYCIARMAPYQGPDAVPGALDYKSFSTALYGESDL
UniProt P07355: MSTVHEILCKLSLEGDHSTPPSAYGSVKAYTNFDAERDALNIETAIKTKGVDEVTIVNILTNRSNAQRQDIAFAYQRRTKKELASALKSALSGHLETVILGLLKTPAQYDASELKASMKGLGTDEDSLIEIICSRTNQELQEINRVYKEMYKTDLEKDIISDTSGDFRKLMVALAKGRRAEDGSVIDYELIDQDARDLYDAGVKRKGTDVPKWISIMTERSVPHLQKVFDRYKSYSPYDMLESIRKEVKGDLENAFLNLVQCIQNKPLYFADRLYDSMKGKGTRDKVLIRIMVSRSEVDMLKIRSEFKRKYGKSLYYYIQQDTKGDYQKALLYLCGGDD
UniProt P35579: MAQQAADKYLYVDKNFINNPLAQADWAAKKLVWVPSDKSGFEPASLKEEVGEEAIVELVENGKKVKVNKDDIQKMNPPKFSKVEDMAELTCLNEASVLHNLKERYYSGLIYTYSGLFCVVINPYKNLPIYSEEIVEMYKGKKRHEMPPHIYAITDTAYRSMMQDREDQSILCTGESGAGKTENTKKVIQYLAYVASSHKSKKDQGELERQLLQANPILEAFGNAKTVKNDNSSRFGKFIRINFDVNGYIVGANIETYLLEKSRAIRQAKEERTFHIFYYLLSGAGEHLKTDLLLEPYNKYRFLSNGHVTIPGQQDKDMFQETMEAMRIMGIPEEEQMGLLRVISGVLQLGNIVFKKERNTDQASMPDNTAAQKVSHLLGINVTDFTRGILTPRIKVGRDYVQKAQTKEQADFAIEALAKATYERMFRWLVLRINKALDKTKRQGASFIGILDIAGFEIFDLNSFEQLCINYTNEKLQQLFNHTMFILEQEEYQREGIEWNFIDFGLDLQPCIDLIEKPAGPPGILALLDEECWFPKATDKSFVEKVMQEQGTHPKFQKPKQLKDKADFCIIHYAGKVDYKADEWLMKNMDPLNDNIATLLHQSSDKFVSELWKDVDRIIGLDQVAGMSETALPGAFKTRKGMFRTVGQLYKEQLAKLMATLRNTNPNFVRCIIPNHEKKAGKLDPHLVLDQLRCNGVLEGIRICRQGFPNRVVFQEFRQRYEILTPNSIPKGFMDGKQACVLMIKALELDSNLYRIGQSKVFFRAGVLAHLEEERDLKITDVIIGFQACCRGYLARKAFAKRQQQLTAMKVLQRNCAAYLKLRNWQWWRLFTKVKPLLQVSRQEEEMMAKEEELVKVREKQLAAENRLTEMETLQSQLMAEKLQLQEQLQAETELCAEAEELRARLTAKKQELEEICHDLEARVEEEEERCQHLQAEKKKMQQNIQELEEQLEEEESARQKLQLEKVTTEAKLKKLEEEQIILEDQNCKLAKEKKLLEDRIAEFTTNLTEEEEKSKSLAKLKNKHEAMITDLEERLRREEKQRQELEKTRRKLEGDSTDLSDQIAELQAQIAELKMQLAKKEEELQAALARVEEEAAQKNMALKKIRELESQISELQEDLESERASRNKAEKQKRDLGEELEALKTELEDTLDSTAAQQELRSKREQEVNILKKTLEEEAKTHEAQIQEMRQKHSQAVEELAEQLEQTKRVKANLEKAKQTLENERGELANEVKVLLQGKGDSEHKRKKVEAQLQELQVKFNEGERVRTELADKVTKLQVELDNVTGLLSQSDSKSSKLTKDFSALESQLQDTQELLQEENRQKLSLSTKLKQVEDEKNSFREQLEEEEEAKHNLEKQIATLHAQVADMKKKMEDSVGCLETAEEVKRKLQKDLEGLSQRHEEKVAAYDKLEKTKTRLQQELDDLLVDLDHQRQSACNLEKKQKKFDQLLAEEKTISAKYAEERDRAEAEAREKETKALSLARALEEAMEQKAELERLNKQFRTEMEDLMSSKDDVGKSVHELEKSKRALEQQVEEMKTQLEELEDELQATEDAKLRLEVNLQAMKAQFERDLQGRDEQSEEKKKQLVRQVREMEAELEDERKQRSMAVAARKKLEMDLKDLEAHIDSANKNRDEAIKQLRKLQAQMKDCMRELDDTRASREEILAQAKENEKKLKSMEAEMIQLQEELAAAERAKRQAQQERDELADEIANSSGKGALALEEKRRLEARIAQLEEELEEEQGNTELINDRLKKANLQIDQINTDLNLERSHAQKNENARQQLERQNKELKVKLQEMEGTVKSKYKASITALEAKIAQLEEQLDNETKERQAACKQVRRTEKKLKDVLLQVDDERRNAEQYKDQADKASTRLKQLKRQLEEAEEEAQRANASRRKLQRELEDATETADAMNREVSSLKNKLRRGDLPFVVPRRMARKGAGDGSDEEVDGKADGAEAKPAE
UniProt P08670: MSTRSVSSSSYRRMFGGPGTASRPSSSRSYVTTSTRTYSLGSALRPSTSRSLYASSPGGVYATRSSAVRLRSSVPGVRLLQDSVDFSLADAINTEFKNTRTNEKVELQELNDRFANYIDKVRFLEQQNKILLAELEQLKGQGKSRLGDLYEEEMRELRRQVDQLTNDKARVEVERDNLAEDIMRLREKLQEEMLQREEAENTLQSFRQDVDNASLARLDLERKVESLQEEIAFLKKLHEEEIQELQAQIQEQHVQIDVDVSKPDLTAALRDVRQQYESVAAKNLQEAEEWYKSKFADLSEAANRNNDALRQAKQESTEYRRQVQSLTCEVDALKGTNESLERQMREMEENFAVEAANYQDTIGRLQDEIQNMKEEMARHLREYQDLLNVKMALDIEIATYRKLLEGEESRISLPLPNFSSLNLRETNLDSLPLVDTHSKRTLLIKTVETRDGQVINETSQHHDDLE

The target in test [2] is EphrinA2 (EphA2) (human (endogenous in HMVEC-d)) (UniProt P29317). The description is as above.

These are yes or no findings as the source states them, for the method shown. In cells and extracts the contact can be indirect. These calls come from enrichment with a bait or labelling near it, and not all partners need be listed.

Bip (from UniProt P11021 19-654): the binding result in test [1] is on record as “binds”.

Turning to Ezrin (from UniProt P15311 1-586), the binding result in test [1] is recorded as “binds”.

For the molecule Hsp70 (human (endogenous in HMVEC-d)), the binding result in test [1] is recorded as “binds”.

As for Moesin (from UniProt P26038 1-577), in test [1], the binding entry is listed as “binds”.

For the molecule Myosin L6 (from UniProt P60660 1-151), the binding entry in test [2] and in test [1] was “binds” in each case.

For Radixin (from UniProt P35241 1-583), the binding entry in test [1] is “binds”.

With “alpha-actinin 4 (from UniProt O43707 1-911)”, in test [1], the binding entry is “binds”.

For annexin A2 (from UniProt P07355 1-339), the binding result in test [2] and in test [1] was “binds” in each case.

For the molecule myosin IIA (from UniProt P35579 1-1960), the binding entry in test [2] and in test [1] was “binds” each time.

Turning to vimentin (from UniProt P08670 1-466), the binding entry in test [2] and in test [1] was “binds” throughout.

B1: Peroxiredoxin I (protein, UniProt Q06830 1-199)
chain: MSSGNAKIGHPAPNFKATAVMPDGQFKDISLSDYKGKYVVFFFYPLDFTFVCPTEIIAFSDRAEEFKKLNCQVIGASVDSHFCHLAWVNTPKKQGGLGPMNIPLVSDPKRTIAQDYGVLKADEGISFRGLFIIDDKGILRQITVNDLPVGRSVDETLRLVQAFQFTDKHGEVCPAGWKPGSDTIKPDVQKSKEYFSKQK
As for B1, the binding result in test [1] was “binds”.
